In the assay the test system is CD2F1 mice, L1210 leukemia ip, survival T/C. Briefly: NCI In Vivo Anticancer Drug Screen. Data for tumor model L1210 Leukemia (intraperitoneal) in CD2F1 (CDF1) mice. The settings on record: higher T/C = longer survival. On the procedure:
The antitumor activity of compounds was measured in mice bearing transplantable tumors. Survival or tumor size were measured and the results are expressed as the measurement made in the treated group (T) divided by the measurement made in the vehicle treated control group (C). The tumor model used in this assay is L1210 Leukemia (intraperitoneal) in CD2F1 (CDF1) mice

Setting [1] is: T/C endpoint: mean survival time, dose: 100.0 mg/kg/injection, schedule: Q04DX003 (ip), vehicle: saline with Tween-80.
Where [2] appears, read: T/C endpoint: mean survival time, dose: 200.0 mg/kg/injection, schedule: Q04DX003 (ip), vehicle: saline with Tween-80.
[3] abbreviates: T/C endpoint: mean survival time, dose: 400.0 mg/kg/injection, schedule: Q04DX003 (ip), vehicle: saline with Tween-80.
Setting [4] is: T/C endpoint: mean survival time, dose: 200.0 mg/kg/injection, schedule: Q04DX002 (ip), vehicle: saline with Tween-80.
Setting [5] is: T/C endpoint: mean survival time, dose: 400.0 mg/kg/injection, schedule: Q04DX002 (ip), vehicle: saline with Tween-80.
[6] abbreviates: T/C endpoint: mean survival time, dose: 200.0 mg/kg/injection, schedule: Q01DX009 (ip), vehicle: saline with Tween-80.
Setting [7] is: T/C endpoint: mean survival time, dose: 400.0 mg/kg/injection, schedule: Q01DX009 (ip), vehicle: saline with Tween-80.

Experimental findings from PubChem BioAssay AID256 (DTP/NCI, 2004) are described below.

The list shows only some results of the screen, not a fair sample: it gathers tests that were run many times, whatever their T/C, doses with no T/C, and many T/C values between a quarter and a half above the control. Further doses and runs are listed elsewhere. T/C: endpoint of the treated group in % of that of the vehicle group. Some doses have a count of surviving animals in place of a T/C: the source holds a T/C of zero for them, seemingly a mark for toxic or unscored doses. Some doses without a T/C left all or most animals alive at the check, yet need not have been tolerated: the source hardly ever lists a survival T/C far under the control, and the zero likely stands for such cases as well. Counts of survivors are from the toxicity check (mostly the fifth day) where no day follows; animals may have died later. Schedules are NCI's codes, read here as Q, the interval in days (D) or hours (H), X, the number of doses. Some doses were run more than once; their values stand side by side, smallest first. Where survival is the endpoint, this PubChem deposit counts one and a half times the control or more as active, and values a quarter to a half above the control carry no call in these data; other NCI protocols may use other cut-offs. Brackets with × count equal records among those shown. Some T/C values carry the count of animals alive at the toxicity check (mostly the fifth day); where none is given, no animal had died by that day.

With `CN1CC2(c3ccccc3)CN(C)CC(c3ccccc3)(C1)C2=O`, the survivor count reads like this: under setting [1], 1 of 6; under setting [2], 0 of 6; under setting [3], 0 of 6.

For `COc1cc2c(c3c1c(=O)c1cccc(F)c1n3C)C=CC(C)(C)O2`, the T/C is, setting by setting: (T/C endpoint: median survival time, dose: 25.0 mg/kg/injection, schedule: Q01DX009 (ip), vehicle: Klucel (hydroxypropylcellulose) (HPC)) 129 and 132 % of control; (T/C endpoint: median survival time, dose: 50.0 mg/kg/injection, schedule: Q01DX009 (ip), vehicle: Klucel (hydroxypropylcellulose) (HPC)) 141 % of control; (T/C endpoint: median survival time, dose: 100.0 mg/kg/injection, schedule: Q01DX009 (ip), vehicle: Klucel (hydroxypropylcellulose) (HPC)) 139 % of control [5 of 6 alive]. Moreover, under “T/C endpoint: median survival time, dose: 400.0 mg/kg/injection, schedule: Q01DX009 (ip), vehicle: Klucel (hydroxypropylcellulose) (HPC)”, the survivor count was 1 of 6 and 3 of 6.

For the molecule `COc1cc(Br)c(CC2c3cc(OC)c(OC)cc3CCN2C)cc1OC` (configuration not stated), the survivor count (T/C endpoint: mean survival time, dose: 400.0 mg/kg/injection, schedule: Q01DX001 (ip), vehicle: saline) is 1 of 6.

Take `CCCC(C)C1(CC)NC(C)(C)CC(C)O1` (configuration not stated): the survivor count under setting [3] is 3 of 6.

Turning to `CCOC(=O)/N=[N+](\[O-])c1ccccc1`, the survivor count is 0 of 6 (T/C endpoint: median survival time, dose: 25.0 mg/kg/injection, schedule: Q01DX009 (ip), vehicle: saline with Tween-80) and 0 of 6 (T/C endpoint: median survival time, dose: 50.0 mg/kg/injection, schedule: Q01DX009 (ip), vehicle: saline with Tween-80).

In the case of `COc1cc(-c2ccc(-[n+]3nc(Cc4ccc5c(c4)OCO5)nn3-c3ccccc3)c(OC)c2)ccc1-[n+]1nc(Cc2ccc3c(c2)OCO3)nn1-c1ccccc1`, under setting [3], the survivor count is recorded as 0 of 6.

Take `CN(C)CCCNc1cccc2c1C(=O)c1cccc(NCCCN(C)C)c1C2=O`: the survivor count (T/C endpoint: mean survival time, dose: 128.0 mg/kg/injection, schedule: Q01DX009 (ip), vehicle: acid diluted with saline) is 1 of 6.

For `CCCC1(CCC)NC(=O)NC1=O`, the survivor count (T/C endpoint: mean survival time, dose: 400.0 mg/kg/injection, schedule: Q04DX003 (ip), vehicle: other) is 5 of 6.

Take `N=[N+]=CC(=O)CC(N)C(=O)O` (configuration not stated): the survivor count (T/C endpoint: median survival time, dose: 1600.0 mg/kg/injection, schedule: Q01DX001 (ip), vehicle: saline) was 1 of 6.

Regarding `COc1cccc2c1C(=O)c1c(O)c3c(c(O)c1C2=O)CC(O)(C(=O)CO)CC3OC1CC(N)C(O)C(C)O1.[Cl][Pt+2][Cl].[NH2-].[NH2-]` (configuration not stated), the T/C is 127 % of control (T/C endpoint: median survival time, dose: 1.0 mg/kg/injection, schedule: Q04DX003 (ip), vehicle: DMSO); 139 % of control (T/C endpoint: median survival time, dose: 2.0 mg/kg/injection, schedule: Q04DX003 (ip), vehicle: DMSO); 146 % of control (T/C endpoint: median survival time, dose: 4.0 mg/kg/injection, schedule: Q04DX003 (ip), vehicle: DMSO). For the same molecule, the survivor count is, setting by setting: (T/C endpoint: median survival time, dose: 32.0 mg/kg/injection, schedule: Q04DX003 (ip), vehicle: DMSO) 6 of 6; (T/C endpoint: median survival time, dose: 64.0 mg/kg/injection, schedule: Q04DX003 (ip), vehicle: DMSO) 6 of 6.

As to `[CH3][Sb]([CH3])([CH3])([O]C(=O)CF)[O]C(=O)CF`, the survivor count runs as follows: under setting [1], 0 of 6; under setting [2], 0 of 6; under setting [3], 0 of 6.

On to `COc1ccccc1NC(=O)Oc1ccccc1-c1ccccc1`, for which the survivor count is listed as 3 of 3 under setting [4] and 3 of 3 under setting [5].

With `O=S(=O)(O)c1ccc2ncccc2c1`, the survivor count is 0 of 3 and 1 of 3 (T/C endpoint: mean survival time, dose: 100.0 mg/kg/injection, schedule: Q04DX002 (ip), vehicle: saline with Tween-80); 0 of 3 under setting [4]; 0 of 3 under setting [5].

With `CC1OC(=O)C2(C(C)C)CC12` (configuration not stated), the survivor count is recorded as 0 of 6 (T/C endpoint: mean survival time, dose: 38.0 mg/kg/injection, schedule: Q01DX001 (ip), vehicle: other); 0 of 6 (T/C endpoint: mean survival time, dose: 75.0 mg/kg/injection, schedule: Q01DX001 (ip), vehicle: other); 0 of 6 (T/C endpoint: mean survival time, dose: 150.0 mg/kg/injection, schedule: Q01DX001 (ip), vehicle: other); 0 of 6 (T/C endpoint: mean survival time, dose: 300.0 mg/kg/injection, schedule: Q01DX001 (ip), vehicle: other).

As to `CC(O)C1OC(n2cnc3c(=S)nc[nH]c32)C(O)C1O` (configuration not stated), the T/C (T/C endpoint: median survival time, dose: 25.0 mg/kg/injection, schedule: Q01DX005 (ip), vehicle: distilled water + Tween-80) was 125 % of control; the T/C (T/C endpoint: median survival time, dose: 50.0 mg/kg/injection, schedule: Q01DX005 (ip), vehicle: distilled water + Tween-80) is reported as 134, 137, 142 % of control; the T/C (T/C endpoint: median survival time, dose: 100.0 mg/kg/injection, schedule: Q01DX005 (ip), vehicle: distilled water + Tween-80) is 137 and 146 % of control (2×); the T/C (T/C endpoint: median survival time, dose: 200.0 mg/kg/injection, schedule: Q01DX005 (ip), vehicle: distilled water + Tween-80) was 148 % of control.

`CNc1ccc(O)cc1`: the survivor count under setting [1] is given as 0 of 6, the survivor count under setting [2] is listed as 0 of 6 and the survivor count under setting [3] is 0 of 6.

With `O=[N+]([O-])c1ccc(S(=O)(=O)Cl)c(Cl)c1`, the survivor count reads like this: (T/C endpoint: mean survival time, dose: 100.0 mg/kg/injection, schedule: Q01DX009 (ip), vehicle: saline with Tween-80) 3 of 6; under setting [6], 2 of 6; under setting [7], 0 of 6.

Consider `CC1OC(Sc2ncnc3nc[nH]c23)C(O)C(O)C1O` (configuration not stated), for which, for the setting “T/C endpoint: median survival time, dose: 100.0 mg/kg/injection, schedule: Q01DX005 (ip), vehicle: saline with Tween-80”, the T/C is 141 % of control.

Consider `COC1C(O)CC(OC2CC(OC3CC(O[C@@H]4C(=O)c5c(cc6cc(OC7CC(OC8CC(O)C(O)C(C)O8)C(O)C(C)O7)c(C)c(O)c6c5O)C[C@H]4[C@H](OC)C(=O)[C@@H](O)[C@@H](C)O)OC(C)C3O)OC(C)C2O)OC1C` (some centres not stated), for which the survivor count (T/C endpoint: mean survival time, dose: 3.0 mg/kg/injection, schedule: Q01DX009 (ip), vehicle: saline) is reported as 2 of 6.

For `O=C1OC(=O)C2C3CCC(O3)C12` (configuration not stated), the survivor count was 0 of 6 (T/C endpoint: mean survival time, dose: 6.25 mg/kg/injection, schedule: Q01DX009 (ip), vehicle: saline); 2 of 6 (T/C endpoint: mean survival time, dose: 12.5 mg/kg/injection, schedule: Q04DX003 (ip), vehicle: saline); 0 of 6 (T/C endpoint: mean survival time, dose: 25.0 mg/kg/injection, schedule: Q04DX003 (ip), vehicle: saline); 0 of 6 (T/C endpoint: mean survival time, dose: 50.0 mg/kg/injection, schedule: Q04DX003 (ip), vehicle: saline).

Turning to `O=P(O)(O)C1c2ccccc2-c2ccccc21`, the survivor count under setting [7] is recorded as 3 of 6.

Consider `Cc1ccc(S(=O)(=O)OC(C#N)c2ccccc2)cc1` (configuration not stated), for which the survivor count is 0 of 6 under setting [6] and 0 of 6 (T/C endpoint: mean survival time, dose: 400.0 mg/kg/injection, schedule: Q01DX001 (ip), vehicle: saline with Tween-80).

As for `O=C(OCc1ccccc1)C1CC1` (tested in a mixture with another compound), where the note is “T/C endpoint: mean survival time, dose: 400.0 mg/kg/injection, schedule: Q01DX005 (ip), vehicle: saline with Tween-80”, the survivor count was 0 of 3.
